The text below walks through data of publication PMC9354084 (ACS Chemical Neuroscience, 2022).

The data set is described as follows: PAMPA-BBB permeability assay. The note with it: predicted from PAMPA Pe.

Turning to `NS(=O)(=O)c1cc(C(=O)O)c(NCc2ccco2)cc1Cl` [furosemide, reference compound], the CNS prediction result is “CNS - (CNS -: low BBB permeation predicted, Pe (×10-6 cm s-1) < 2.0)”.
